Literature values in US9044520B2, “Compound accumulating in inflammatory site, diagnostic agent containing the compound in labeled state and its precursor compound for labeling” (Nihon Medi-Physics Co., Ltd., priority 2011, dated 2015).

Chains of the proteins cited; added tags and fusions are not shown.
UniProt P21462, whole entry: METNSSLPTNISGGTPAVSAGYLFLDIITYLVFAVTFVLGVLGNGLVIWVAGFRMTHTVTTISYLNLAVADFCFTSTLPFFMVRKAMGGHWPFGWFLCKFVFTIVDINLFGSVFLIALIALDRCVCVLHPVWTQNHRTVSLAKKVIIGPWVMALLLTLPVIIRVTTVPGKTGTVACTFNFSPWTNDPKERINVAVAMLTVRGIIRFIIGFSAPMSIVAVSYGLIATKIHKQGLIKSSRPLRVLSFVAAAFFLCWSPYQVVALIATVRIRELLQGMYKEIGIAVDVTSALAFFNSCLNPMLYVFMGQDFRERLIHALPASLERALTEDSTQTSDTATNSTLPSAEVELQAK

Molecular target: formylated peptide receptor (FPR) (Homo sapiens, UniProt P21462)
Conditions: read-out: Kd Value of Radioligand; value used in equation (1) for Ki calculation; source not stated, radioligand obtained from PerkinElmer; cited from earlier work

## CSCC[C@H](NC(=O)[C@H](Cc1ccc(O)c([125I])c1)NC(=O)[C@H](CCCCN)NC(=O)[C@@H](N)Cc1c[nH]c2ccccc12)C(=O)N[C@H](C(=O)N[C@H](CCSC)C(N)=O)C(C)C
  Kd: 0.39 nM

The match of structure and compound is tentative.
